PubChem BioAssay AID1259254, NCATS, 2017
Screen: 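Gene knock-downs that lead to re-replication, shown by excess G2 DNA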 (primary screen). Cells: human HCT116 colorectal cancer cells. Reagents: single siRNA against human genes. Timing: 3 days. Measured: 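Imaged Hoechst DNA stain sorts each cell into a cycle phase by DNA amount; per plate, G2 fraction set to 0% for non-targeting and 100% for GMNN siRNA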. Reading the numbers: G2 robust z-score and G2 cells, % of GMNN control: higher = more G2 cells, more excess DNA replication. Hit rule: 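Active siRNAs have a G2 robust z of 5 or more median absolute deviations over the median, which in these data means about 38% or higher of GMNN control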.
Shown is one part, drawn at random, of about 59,000 reagents. About 1,550 of them (2.6%) count as active. 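G2 share is only a proxy for re-replication; each gene was hit by three separate siRNAs, and active genes were retested.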 Reagents against one gene are numbered here. Further read-outs or replicates are left out here. Not stated in the record: the amount of reagent.

Target gene	reagent	G2 robust z-score	G2 cells, % of GMNN control	Outcome
KCNQ5	1	-0.503	-0.568	inactive
KCNQ5	2	1.22	11.5	inactive
KCNQ5	3	-0.29	0.93	inactive
POU4F2	1	-1.08	-4.65	inactive
POU4F2	2	-0.142	1.97	inactive
POU4F2	3	0.517	6.6	inactive
HAMP	1	-0.903	-3.38	inactive
HAMP	2	0.0745	3.49	inactive
HAMP	3	-0.0297	2.76	inactive
RAVER2	1	-1.23	-5.68	inactive
RAVER2	2	2.11	17.8	inactive
RAVER2	3	0.108	3.72	inactive
FGF22	1	-1.09	-4.72	inactive
FGF22	2	1.06	10.5	inactive
FGF22	3	-0.49	-0.479	inactive
NECAP1	1	-0.232	1.33	inactive
NECAP1	2	-0.362	0.421	inactive
NECAP1	3	-0.45	-0.2	inactive
PRMT2	1	-0.148	1.92	inactive
PRMT2	2	-0.309	0.79	inactive
PRMT2	3	-0.637	-1.52	inactive
TRAM1L1	1	-0.777	-2.5	inactive
TRAM1L1	2	-0.328	0.662	inactive
TRAM1L1	3	-0.573	-1.07	inactive
VPS53	1	-0.946	-3.69	inactive
VPS53	2	1.19	11.4	inactive
VPS53	3	0.628	7.39	inactive
NGFR	1	1.06	10.4	inactive
NGFR	2	5.1	38.8	active
NGFR	3	-0.882	-3.24	inactive
CNEP1R1	1	-0.902	-3.38	inactive
CNEP1R1	2	-0.602	-1.27	inactive
CNEP1R1	3	0.283	4.96	inactive
GOLGA2P11	1	-0.332	0.631	inactive
GOLGA2P11	2	-0.0795	2.41	inactive
GOLGA2P11	3	-0.867	-3.14	inactive
ACTN2	1	0.079	3.52	inactive
ACTN2	2	0.348	5.42	inactive
ACTN2	3	-0.825	-2.84	inactive
GUSBP5	1	1.78	15.5	inactive
GUSBP5	2	-0.642	-1.55	inactive
GUSBP5	3	0.271	4.87	inactive

Next part, starting with the last 3 of the part before.
Target gene	reagent	G2 robust z-score	G2 cells, % of GMNN control	Outcome
GUSBP5	1	1.78	15.5	inactive
GUSBP5	2	-0.642	-1.55	inactive
GUSBP5	3	0.271	4.87	inactive
OR1J4	1	0.744	8.2	inactive
OR1J4	2	1.96	16.8	inactive
OR1J4	3	0.652	7.56	inactive
CA11	1	8.55	63.2	active
CA11	2	-0.295	0.891	inactive
CA11	3	-0.103	2.24	inactive
TSPAN14	1	0.25	4.72	inactive
TSPAN14	2	-0.793	-2.61	inactive
TSPAN14	3	-1.22	-5.64	inactive
CORO7	1	-0.771	-2.45	inactive
CORO7	2	0.239	4.65	inactive
CORO7	3	-0.668	-1.73	inactive
LMOD1	1	0.522	6.64	inactive
LMOD1	2	-0.102	2.25	inactive
LMOD1	3	2.18	18.3	inactive
STH	1	2.95	23.7	inactive
STH	2	-0.118	2.14	inactive
STH	3	-0.463	-0.293	inactive
ALAD	1	3.11	24.8	inactive
ALAD	2	-0.502	-0.565	inactive
ALAD	3	2.74	22.3	inactive
SFTPD	1	0.446	6.1	inactive
SFTPD	2	-1.1	-4.77	inactive
SFTPD	3	0.752	8.26	inactive
CSNK2A1	1	0.0992	3.67	inactive
CSNK2A1	2	-0.393	0.204	inactive
CSNK2A1	3	-0.102	2.25	inactive
